From publication PMC4415780
Results are given in words; binding and its absence hold for the method and conditions named. In cells and extracts the contact can be indirect. Binding calls can cover weak binding; strength is not graded here.

Chains of the proteins cited; added tags and fusions are not shown. Lines headed by an entry give the natural chain unless they say otherwise; changes in a name come on top.
UniProt Q57ZX7: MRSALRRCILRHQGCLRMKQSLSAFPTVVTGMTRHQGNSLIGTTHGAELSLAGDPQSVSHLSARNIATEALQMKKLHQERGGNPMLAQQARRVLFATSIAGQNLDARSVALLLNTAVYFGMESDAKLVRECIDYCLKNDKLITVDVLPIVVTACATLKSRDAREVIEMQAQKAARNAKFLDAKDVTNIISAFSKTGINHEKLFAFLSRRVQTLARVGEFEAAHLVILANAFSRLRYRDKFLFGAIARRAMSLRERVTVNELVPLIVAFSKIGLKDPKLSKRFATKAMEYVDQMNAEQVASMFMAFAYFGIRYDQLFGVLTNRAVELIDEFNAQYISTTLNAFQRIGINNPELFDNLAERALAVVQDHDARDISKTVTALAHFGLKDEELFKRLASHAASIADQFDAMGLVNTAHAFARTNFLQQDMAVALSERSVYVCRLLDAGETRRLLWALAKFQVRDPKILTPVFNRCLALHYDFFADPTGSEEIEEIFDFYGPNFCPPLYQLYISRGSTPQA
UniProt Q586X1: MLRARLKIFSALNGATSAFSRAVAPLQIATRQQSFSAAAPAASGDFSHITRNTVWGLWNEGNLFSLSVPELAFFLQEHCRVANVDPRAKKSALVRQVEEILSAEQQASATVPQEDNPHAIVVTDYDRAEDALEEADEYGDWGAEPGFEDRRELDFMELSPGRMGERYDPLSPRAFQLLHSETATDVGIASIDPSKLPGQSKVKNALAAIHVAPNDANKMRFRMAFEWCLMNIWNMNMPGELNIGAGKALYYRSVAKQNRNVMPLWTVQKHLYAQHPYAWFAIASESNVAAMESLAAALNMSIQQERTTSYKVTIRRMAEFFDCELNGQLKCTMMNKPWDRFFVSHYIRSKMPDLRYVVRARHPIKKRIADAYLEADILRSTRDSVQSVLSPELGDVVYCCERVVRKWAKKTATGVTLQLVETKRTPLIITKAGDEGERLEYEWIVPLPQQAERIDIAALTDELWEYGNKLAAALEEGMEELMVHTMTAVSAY

Experiments:
[1] = target: MRB3010 (Trypanosoma brucei (endogenous in procyclic Lister 427 29-13)) (UniProt Q57ZX7); test: co-IP; REH2 and 3010 IPs from mitochondrial lysates of RNAP knockdown (RNA-depleted) cells, without nuclease treatment; western blot
[2] = target: MRB3010 (Trypanosoma brucei (endogenous in procyclic Lister 427 29-13)) (UniProt Q57ZX7); test: co-IP; REH2 and 3010 IPs from mitochondrial lysates of RNAP knockdown cells, IP sample treated with a cocktail of nucleases (RNases A and T1, micrococcal nuclease); western blot
[3] = target: MRB3010 (Trypanosoma brucei (endogenous in procyclic Lister 427 29-13)) (UniProt Q57ZX7); test: co-IP; affinity-purified peptide antibodies to REH2 or MRB3010 on Dynabeads Protein A; ~2 mg pre-cleared mitochondrial extract (untreated cells, or REH2 RNAi at 0 or 4 days); washes 200 mM NaCl, 1 mM EDTA, 10 mM MgCl2, 25 mM Tris pH 8; western blot

Measured: binding

GAP1 (from UniProt Q586X1)
binds: all assays above
